## Screening data

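A panel of P. falciparum strains inside erythrocytes is exposed to compounds for three days, then a DNA-binding dye reports the amount of parasite DNA.
Each compound was titrated across a series from about 0.000037 to 29 µM.
The number is the fitted AC50, the concentration giving a half-maximal change in signal; a lower value means higher potency, whether the curve shows a decrease or an increase.
Calls follow the curve class and fit quality: every row here is inconclusive, covering signal-raising curves and weak, poorly fitted, partial or highest-dose-only inhibition curves.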

Values are in nM.
Every entry below has the call inconclusive.
These entries are mostly ones the record files as inconclusive; other results of the assay are not listed here.
Potencies fitted to partial, single-point or poorly fitting curves are rough.

compound	condition	potency (nM)	curve
CN(C)CC[C@@](O)(c1ccccc1)c1ccccc1Cl	CP305	11995	inhibitor, partial curve, poor fit
CN(C)CC[C@@](O)(c1ccccc1)c1ccccc1Cl	3D7	11220	inhibitor, single point
CN(C)CC[C@@](O)(c1ccccc1)c1ccccc1Cl	CP215	9528	inhibitor, partial curve
CN(C)CC[C@@](O)(c1ccccc1)c1ccccc1Cl	CP211	8492	inhibitor, partial curve
CN(C)CC[C@@](O)(c1ccccc1)c1ccccc1Cl	CP203	6746	inhibitor, partial curve, poor fit
CN(C)CC[C@@](O)(c1ccccc1)c1ccccc1Cl	CP191	10000	inhibitor, single point
CN(C)CC[C@@](O)(c1ccccc1)c1ccccc1Cl	CP247	5623	inhibitor, partial curve
CN1C(=O)[C@@H](NC(=O)c2cc3ccccc3[nH]2)N=C(c2ccccc2)c2ccccc21	ATS189	8912	inhibitor, single point
CN1C(=O)[C@@H](NC(=O)c2cc3ccccc3[nH]2)N=C(c2ccccc2)c2ccccc21	CP211	16944	inhibitor, single point
CN1C(=O)[C@@H](NC(=O)c2cc3ccccc3[nH]2)N=C(c2ccccc2)c2ccccc21	ATS95	12589	inhibitor, single point
CN1C(=O)[C@@H](NC(=O)c2cc3ccccc3[nH]2)N=C(c2ccccc2)c2ccccc21	CP266	11995	inhibitor, single point
CN1C(=O)[C@@H](NC(=O)c2cc3ccccc3[nH]2)N=C(c2ccccc2)c2ccccc21	CP286	17782	inhibitor, single point
CN1C(=O)[C@@H](NC(=O)c2cc3ccccc3[nH]2)N=C(c2ccccc2)c2ccccc21	AS120	11220	inhibitor, single point
CN1C(=O)[C@@H](NC(=O)c2cc3ccccc3[nH]2)N=C(c2ccccc2)c2ccccc21	CP203	16944	inhibitor, single point
CN1C(=O)[C@@H](NC(=O)c2cc3ccccc3[nH]2)N=C(c2ccccc2)c2ccccc21	DIV30	13459	inhibitor, partial curve, poor fit
CN1C(=O)[C@@H](NC(=O)c2cc3ccccc3[nH]2)N=C(c2ccccc2)c2ccccc21	P93_24	11220	inhibitor, single point
CN1C(=O)[C@@H](NC(=O)c2cc3ccccc3[nH]2)N=C(c2ccccc2)c2ccccc21	CP185	12589	inhibitor, single point
CN1C(=O)[C@@H](NC(=O)c2cc3ccccc3[nH]2)N=C(c2ccccc2)c2ccccc21	CP265	10000	inhibitor, single point
CN1C(=O)[C@@H](NC(=O)c2cc3ccccc3[nH]2)N=C(c2ccccc2)c2ccccc21	CP238	11220	inhibitor, single point
CN1C(=O)[C@@H](NC(=O)c2cc3ccccc3[nH]2)N=C(c2ccccc2)c2ccccc21	CP297	19011	inhibitor, single point
CN1C(=O)[C@@H](NC(=O)c2cc3ccccc3[nH]2)N=C(c2ccccc2)c2ccccc21	PAD	17782	inhibitor, single point
CN1C(=O)[C@@H](NC(=O)c2cc3ccccc3[nH]2)N=C(c2ccccc2)c2ccccc21	CP325	21331	inhibitor, single point
CN1C(=O)[C@@H](NC(=O)c2cc3ccccc3[nH]2)N=C(c2ccccc2)c2ccccc21	CP237	11220	inhibitor, single point
CN1C(=O)[C@@H](NC(=O)c2cc3ccccc3[nH]2)N=C(c2ccccc2)c2ccccc21	CP215	11995	inhibitor, single point
CN1C(=O)[C@@H](NC(=O)c2cc3ccccc3[nH]2)N=C(c2ccccc2)c2ccccc21	DFO2036	17782	inhibitor, single point
CN1C(=O)[C@@H](NC(=O)c2cc3ccccc3[nH]2)N=C(c2ccccc2)c2ccccc21	CP305	19011	inhibitor, single point
CN1C(=O)[C@@H](NC(=O)c2cc3ccccc3[nH]2)N=C(c2ccccc2)c2ccccc21	PC26	15101	inhibitor, single point
CN1C(=O)[C@@H](NC(=O)c2cc3ccccc3[nH]2)N=C(c2ccccc2)c2ccccc21	CP335	19011	inhibitor, single point
CN1C(=O)[C@@H](NC(=O)c2cc3ccccc3[nH]2)N=C(c2ccccc2)c2ccccc21	CP191	11220	inhibitor, single point
CN1C(=O)[C@@H](NC(=O)c2cc3ccccc3[nH]2)N=C(c2ccccc2)c2ccccc21	CP252	17782	inhibitor, single point
CN1C(=O)[C@@H](NC(=O)c2cc3ccccc3[nH]2)N=C(c2ccccc2)c2ccccc21	CP194	16944	inhibitor, single point
CN1C(=O)[C@@H](NC(=O)c2cc3ccccc3[nH]2)N=C(c2ccccc2)c2ccccc21	CP192	19011	inhibitor, single point
CN1C(=O)[C@@H](NC(=O)c2cc3ccccc3[nH]2)N=C(c2ccccc2)c2ccccc21	CP268	19011	inhibitor, single point
CN1C(=O)[C@@H](NC(=O)c2cc3ccccc3[nH]2)N=C(c2ccccc2)c2ccccc21	CP260	15848	inhibitor, single point
CN1C(=O)[C@@H](NC(=O)c2cc3ccccc3[nH]2)N=C(c2ccccc2)c2ccccc21	CP291	10690	inhibitor, partial curve
CN1C(=O)[C@@H](NC(=O)c2cc3ccccc3[nH]2)N=C(c2ccccc2)c2ccccc21	C2A	17782	inhibitor, single point
CN1C(=O)[C@@H](NC(=O)c2cc3ccccc3[nH]2)N=C(c2ccccc2)c2ccccc21	CP315	19011	inhibitor, single point
CN1C(=O)[C@@H](NC(=O)c2cc3ccccc3[nH]2)N=C(c2ccccc2)c2ccccc21	CP269	19011	inhibitor, single point
CN1C(=O)[C@@H](NC(=O)c2cc3ccccc3[nH]2)N=C(c2ccccc2)c2ccccc21	N140	11220	inhibitor, single point
CN1C(=O)[C@@H](NC(=O)c2cc3ccccc3[nH]2)N=C(c2ccccc2)c2ccccc21	HB3	12589	inhibitor, partial curve

The first 3 entries again:

| compound | condition | potency (nM) | curve |
|---|---|---|---|
| `CN(C)CC[C@@](O)(c1ccccc1)c1ccccc1Cl` | CP305 | 11995 | inhibitor, partial curve, poor fit |
| `CN(C)CC[C@@](O)(c1ccccc1)c1ccccc1Cl` | 3D7 | 11220 | inhibitor, single point |
| `CN(C)CC[C@@](O)(c1ccccc1)c1ccccc1Cl` | CP215 | 9528 | inhibitor, partial curve |

From PubChem BioAssay record AID504749 (NCATS, 2011).